# Measurements: the supplement of paper PMC8728848
# The list shows a part of the results.
# B1: CD34 (Homo sapiens), P28906 (protein)
# chain: MGSSHHHHHHSSGLVPRGSHMSTSLATSPTKPYTSSSPILSDIKAEIKCSGIREVKLTQGICLEQNKTSSCAEFKKDRGEGLARVLCGEEQADADAGAQVCSLLLAQSEVRPQCLLLVLANRTEISSKLQLMKKHQSDLKKLGILDFTEQDVASHQSYSQKT
# Legend:
# Experiment in all cases: glycan array binding signal (z-score within array); higher = stronger binding
# Details in all cases: glycan notation: IUPAC condensed, linker removed
# Neu5Ac(a2-3)Gal = biological target: Neu5Ac(a2-3)Gal
# Method in brief: (§1)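 The Consortium for Functional Glycomics database supplied 3228 glycan arrays, of which those lacking an available protein sequence were dropped. The binding signal, a within-array Z-score, was averaged across arrays of the same protein sequence and across linkers. Negative scores can be read as non-binding.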
# [1] = biological target: Neu5Ac(a2-3)Gal(b1-3)GalNAc
# Method in brief: as §1
# [2] = biological target: Neu5Ac(a2-3)Gal(b1-3)GalNAc(b1-3)Gal(a1-4)Gal(b1-4)Glc
# Method in brief: as §1
# [3] = biological target: Neu5Ac(a2-3)Gal(b1-3)GalNAc(b1-4)Gal(b1-4)Glc
# Method in brief: as §1
# [4] = biological target: Neu5Ac(a2-3)Gal(b1-3)GalNAc(b1-4)[Neu5Ac(a2-3)]Gal(b1-4)Glc
# Method in brief: as §1
# [5] = biological target: Neu5Ac(a2-3)Gal(b1-3)GalNAc(b1-4)[Neu5Ac(a2-8)Neu5Ac(a2-3)]Gal(b1-4)Glc
# Method in brief: as §1
# [6] = biological target: Neu5Ac(a2-3)Gal(b1-3)GalNAc6S
# Method in brief: as §1
# [7] = biological target: Neu5Ac(a2-3)Gal(b1-3)GlcNAc
# Method in brief: as §1
# [8] = biological target: Neu5Ac(a2-3)Gal(b1-3)GlcNAc(b1-2)Man
# Method in brief: as §1
# [9] = biological target: Neu5Ac(a2-3)Gal(b1-3)GlcNAc(b1-2)Man(a1-3)[GlcNAc(b1-4)][Neu5Ac(a2-3)Gal(b1-3)GlcNAc(b1-2)Man(a1-6)]Man(b1-4)GlcNAc(b1-4)GlcNAc
# Method in brief: as §1
# [10] = biological target: Neu5Ac(a2-3)Gal(b1-3)GlcNAc(b1-2)Man(a1-3)[Neu5Ac(a2-3)Gal(b1-3)GlcNAc(b1-2)Man(a1-6)]Man(b1-4)GlcNAc(b1-4)GlcNAc
# Method in brief: as §1
# [11] = biological target: Neu5Ac(a2-3)Gal(b1-3)GlcNAc(b1-2)[Neu5Ac(a2-3)Gal(b1-3)GlcNAc(b1-4)]Man(a1-6)[Neu5Ac(a2-3)Gal(b1-3)GlcNAc(b1-2)Man(a1-3)]Man(b1-4)GlcNAc(b1-4)GlcNAc
# Method in brief: as §1
# [12] = biological target: Neu5Ac(a2-3)Gal(b1-3)GlcNAc(b1-3)Gal(b1-3)GlcNAc
# Method in brief: as §1
# [13] = biological target: Neu5Ac(a2-3)Gal(b1-3)GlcNAc(b1-3)Gal(b1-4)GlcNAc
# Method in brief: as §1
# [14] = biological target: Neu5Ac(a2-3)Gal(b1-3)GlcNAc(b1-3)GalNAc
# Method in brief: as §1
# [15] = biological target: Neu5Ac(a2-3)Gal(b1-3)GlcNAc(b1-6)GalNAc
# Method in brief: as §1
# [16] = biological target: Neu5Ac(a2-3)Gal(b1-3)GlcNAc6S
# Method in brief: as §1
# [17] = biological target: Neu5Ac(a2-3)Gal(b1-3)[Fuc(a1-4)]GlcNAc
# Method in brief: as §1
# [18] = biological target: Neu5Ac(a2-3)Gal(b1-3)[Fuc(a1-4)]GlcNAc(b1-3)Gal(b1-3)[Fuc(a1-4)]GlcNAc
# Method in brief: as §1
# [19] = biological target: Neu5Ac(a2-3)Gal(b1-3)[Fuc(a1-4)]GlcNAc(b1-3)Gal(b1-4)[Fuc(a1-3)]GlcNAc
# Method in brief: as §1
# [20] = biological target: Neu5Ac(a2-3)Gal(b1-3)[GlcNAc(b1-6)]GalNAc
# Method in brief: as §1
# [21] = biological target: Neu5Ac(a2-3)Gal(b1-3)[Neu5Ac(a2-6)]GalNAc
# Method in brief: as §1
# [22] = biological target: Neu5Ac(a2-3)Gal(b1-3)[Neu5Ac(a2-6)]GlcNAc(b1-3)[Fuc(a1-3)[Gal(b1-4)]GlcNAc(b1-6)]Gal(b1-4)Glc
# Method in brief: as §1
# [23] = biological target: Neu5Ac(a2-3)Gal(b1-3)]Neu5Ac(a2-3)Gal(b1-4)]GlcNAc
# Method in brief: as §1
# Neu5Ac(a2-3)Gal(b1-4)Glc = biological target: Neu5Ac(a2-3)Gal(b1-4)Glc
# Method in brief: as §1
# [24] = biological target: Neu5Ac(a2-3)Gal(b1-4)GlcNAc
# Method in brief: as §1
# [25] = biological target: Neu5Ac(a2-3)Gal(b1-4)GlcNAc(b1-2)Man
# Method in brief: as §1
# [26] = biological target: Neu5Ac(a2-3)Gal(b1-4)GlcNAc(b1-2)Man(a1-3)[GlcNAc(b1-4)][Neu5Ac(a2-3)Gal(b1-4)GlcNAc(b1-2)Man(a1-6)]Man(b1-4)GlcNAc(b1-4)GlcNAc
# Method in brief: as §1
# [27] = biological target: Neu5Ac(a2-3)Gal(b1-4)GlcNAc(b1-2)Man(a1-3)[Neu5Ac(a2-3)Gal(b1-4)GlcNAc(b1-2)Man(a1-6)]Man(b1-4)GlcNAc(b1-4)GlcNAc
# Method in brief: as §1
# [28] = biological target: Neu5Ac(a2-3)Gal(b1-4)GlcNAc(b1-2)Man(a1-3)[Neu5Ac(a2-3)Gal(b1-4)GlcNAc(b1-2)Man(a1-6)]Man(b1-4)GlcNAc(b1-4)[Fuc(a1-6)]GlcNAc
# Method in brief: as §1
# [29] = biological target: Neu5Ac(a2-3)Gal(b1-4)GlcNAc(b1-2)Man(a1-3)[Neu5Ac(a2-6)Gal(b1-4)GlcNAc(b1-2)Man(a1-6)]Man(b1-4)GlcNAc(b1-4)GlcNAc
# Method in brief: as §1
# [30] = biological target: Neu5Ac(a2-3)Gal(b1-4)GlcNAc(b1-2)[Neu5Ac(a2-3)Gal(b1-4)GlcNAc(b1-4)]Man(a1-3)[GlcNAc(b1-4)][Neu5Ac(a2-3)Gal(b1-4)GlcNAc(b1-2)[Neu5Ac(a2-3)Gal(b1-4)GlcNAc(b1-6)]Man(a1-6)]Man(b1-4)GlcNAc(b1-4)GlcNAc
# Method in brief: as §1
# [31] = biological target: Neu5Ac(a2-3)Gal(b1-4)GlcNAc(b1-2)[Neu5Ac(a2-3)Gal(b1-4)GlcNAc(b1-4)]Man(a1-3)[GlcNAc(b1-4)][Neu5Ac(a2-3)Gal(b1-4)GlcNAc(b1-4)Man(a1-6)]Man(b1-4)GlcNAc(b1-4)GlcNAc
# Method in brief: as §1
# [32] = biological target: Neu5Ac(a2-3)Gal(b1-4)GlcNAc(b1-2)[Neu5Ac(a2-3)Gal(b1-4)GlcNAc(b1-6)]Man(a1-6)[Neu5Ac(a2-3)Gal(b1-4)GlcNAc(b1-2)Man(a1-3)][GlcNAc(b1-4)]Man(b1-4)GlcNAc(b1-4)GlcNAc
# Method in brief: as §1
# [33] = biological target: Neu5Ac(a2-3)Gal(b1-4)GlcNAc(b1-3)Gal
# Method in brief: as §1
# [34] = biological target: Neu5Ac(a2-3)Gal(b1-4)GlcNAc(b1-3)Gal(b1-3)GlcNAc
# Method in brief: as §1
# [35] = biological target: Neu5Ac(a2-3)Gal(b1-4)GlcNAc(b1-3)Gal(b1-4)GlcNAc
# Method in brief: as §1
# [36] = biological target: Neu5Ac(a2-3)Gal(b1-4)GlcNAc(b1-3)Gal(b1-4)GlcNAc(b1-2)Man(a1-3)[Neu5Ac(a2-3)Gal(b1-4)GlcNAc(b1-3)Gal(b1-4)GlcNAc(b1-2)Man(a1-6)]Man(b1-4)GlcNAc(b1-4)GlcNAc
# Method in brief: as §1
# [37] = biological target: Neu5Ac(a2-3)Gal(b1-4)GlcNAc(b1-3)Gal(b1-4)GlcNAc(b1-3)Gal(b1-4)GlcNAc
# Method in brief: as §1
# [38] = biological target: Neu5Ac(a2-3)Gal(b1-4)GlcNAc(b1-3)Gal(b1-4)GlcNAc(b1-3)Gal(b1-4)GlcNAc(b1-2)Man(a1-3)[Neu5Ac(a2-3)Gal(b1-4)GlcNAc(b1-3)Gal(b1-4)GlcNAc(b1-3)Gal(b1-4)GlcNAc(b1-2)Man(a1-6)]GalNAc
# Method in brief: as §1
# [39] = biological target: Neu5Ac(a2-3)Gal(b1-4)GlcNAc(b1-3)Gal(b1-4)GlcNAc(b1-3)GalNAc
# Method in brief: as §1
# [40] = biological target: Neu5Ac(a2-3)Gal(b1-4)GlcNAc(b1-3)Gal(b1-4)GlcNAc(b1-3)[Neu5Ac(a2-3)Gal(b1-4)GlcNAc(b1-3)Gal(b1-4)GlcNAc(b1-6)]GalNAc
# Method in brief: as §1
# [41] = biological target: Neu5Ac(a2-3)Gal(b1-4)GlcNAc(b1-3)Gal(b1-4)GlcNAc(b1-6)[Gal(b1-3)]GalNAc
# Method in brief: as §1
# [42] = biological target: Neu5Ac(a2-3)Gal(b1-4)GlcNAc(b1-3)Gal(b1-4)[Fuc(a1-3)]GlcNAc
# Method in brief: as §1
# [43] = biological target: Neu5Ac(a2-3)Gal(b1-4)GlcNAc(b1-3)GalNAc
# Method in brief: as §1
binder,measurement,setting,value
B1,glycan array binding signal (z-score),Neu5Ac(a2-3)Gal,-0.213
same,glycan array binding signal (z-score),[1],0.103
same,glycan array binding signal (z-score),[2],0.573
same,glycan array binding signal (z-score),[3],-0.559
same,glycan array binding signal (z-score),[4],2.63
same,glycan array binding signal (z-score),[5],-1.04
same,glycan array binding signal (z-score),[6],-0.139
same,glycan array binding signal (z-score),[7],-0.115
same,glycan array binding signal (z-score),[8],-0.207
same,glycan array binding signal (z-score),[9],-0.083
same,glycan array binding signal (z-score),[10],2.09
same,glycan array binding signal (z-score),[11],0.388
same,glycan array binding signal (z-score),[12],-0.752
same,glycan array binding signal (z-score),[13],-0.691
same,glycan array binding signal (z-score),[14],-0.383
same,glycan array binding signal (z-score),[15],0.833
same,glycan array binding signal (z-score),[16],0.142
same,glycan array binding signal (z-score),[17],0.223
same,glycan array binding signal (z-score),[18],1.31
same,glycan array binding signal (z-score),[19],-0.478
same,glycan array binding signal (z-score),[20],-0.679
same,glycan array binding signal (z-score),[21],-0.495
same,glycan array binding signal (z-score),[22],-0.026
same,glycan array binding signal (z-score),[23],0.127
same,glycan array binding signal (z-score),Neu5Ac(a2-3)Gal(b1-4)Glc,0.744
same,glycan array binding signal (z-score),[24],-0.053
same,glycan array binding signal (z-score),[25],1.1
same,glycan array binding signal (z-score),[26],0.259
same,glycan array binding signal (z-score),[27],-0.754
same,glycan array binding signal (z-score),[28],-0.231
same,glycan array binding signal (z-score),[29],0.629
same,glycan array binding signal (z-score),[30],0.342
same,glycan array binding signal (z-score),[31],-0.357
same,glycan array binding signal (z-score),[32],0.089
same,glycan array binding signal (z-score),[33],0.166
same,glycan array binding signal (z-score),[34],-0.171
same,glycan array binding signal (z-score),[35],-0.706
same,glycan array binding signal (z-score),[36],0.971
same,glycan array binding signal (z-score),[37],-0.558
same,glycan array binding signal (z-score),[38],1.37
same,glycan array binding signal (z-score),[39],0.028
same,glycan array binding signal (z-score),[40],-0.111
same,glycan array binding signal (z-score),[41],-0.15
same,glycan array binding signal (z-score),[42],-0.028
same,glycan array binding signal (z-score),[43],0.052

# Four entries drawn at random from the list so far, as already listed:
binder,measurement,setting,value
B1,glycan array binding signal (z-score),[18],1.31
same,glycan array binding signal (z-score),[14],-0.383
same,glycan array binding signal (z-score),[36],0.971
same,glycan array binding signal (z-score),[15],0.833
